## Primary screen of a compound library

The values are deposited in ChEMBL (CHEMBL3988442, “University of Dundee, Small-Polar-MMV Screening Library” (2021)).

Values are the deposited “Percent Effect”, in %.
How 0% and 100% were set is not recorded. Most values in the screen are low, and negative values occur.
This is an unselected part of the compounds tested.
A dash means the value is not listed here; it may have been measured.

A: 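Whole-cell assay for inhibitors of Mycobacterium tuberculosis growth, labelled Cornell in the record; the read-out is not stated. The concentration is filed as 10 mM, unlikely as a test dose, so the dose is not known. The record gives no direction; compounds strong in two other growth screens of this library score well above the rest, so higher reads as stronger inhibition. Of about 53,000 compounds tested this way, about 900 (1.7%) reached 50% or more in at least one test.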
B: 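Assay on Mycobacterium tuberculosis, filed only as a heat shock assay from Cornell; the read-out is not stated. The concentration is filed as 10 mM, unlikely as a test dose, so the dose is not known. The record gives no direction; compounds that gave an IC50 in retests scored well above the rest, so higher reads as stronger inhibition. About 69,000 compounds were tested under these conditions; 1.4% (about 930) showed 50% or more at least once.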

Compound | A | B
CNC(=O)c1ccc(C(=O)N2CCCC(n3ccnc3C)C2)cn1 (stereo not shown) | -12.9% | 0.2738%
CCN(CC)C(=O)[C@@H]1C[C@@H](N)CN1c1nc(N2CCCC2)nc(C)c1C | -14.83% | -6.267%
COCCNCc1ccc(OCC(=O)NC(C)(C)C)cc1 | - | -2.174%
CC(C)(N)C(=O)N1CCCC(c2cncc(Oc3cccnc3)n2)C1 (stereo not shown) | -54.66% | -9.401%
CC(=O)N1CCN(CC(=O)NCCCN(C)c2ccccc2)CC1 | 3.864% | 0.6989%
Cn1ncnc1NS(=O)(=O)c1ccc(F)cc1 | 21.55% | 1.768%
[H][C@]12CC[C@]([H])(CN(Cc3cscn3)C1)N(C(=O)OC)C2 | -3.67% | 1.905%
Cc1nc(C)n(C2CCCN(C(=O)c3cc(C4CC4)on3)C2)n1 (stereo not shown) | - | 17.33%
Cc1cnn(CCNCc2ccc(OCc3cccnc3)cc2)c1 | -17.94% | 3.23%
Nc1cnc(-c2ccc(F)cc2Cl)cn1 | -11.79% | -14.6%
[H][C@@]12CNC[C@]1([H])N(C(=O)c1ccccc1)CCO2 | -2.486% | 3.812%
CCNc1ncc(C(=O)N2Cc3nc(C)[nH]c(=O)c3C2)cn1 | -20.39% | 0.949%
C=C(C)COc1ccccc1CN1CCC(C(=O)NCC)C1 (stereo not shown) | - | -11.11%
Cl.Cn1nc(C2CCCN(Cc3ccccc3)C2)c2nccnc21 (stereo not shown) | -7.249% | -14.16%
CN(Cc1cc2cc(F)ccc2[nH]1)C(=O)C1CC(=O)N(C(C)(C)C)C1 (stereo not shown) | 23.39% | -16.61%
COCCN(CCN(C)C)C(=O)NC1CC1 | 24.95% | -4.479%
CCC(CC)C(=O)c1c[nH]c(C(=O)N2CCN(c3ccccc3)CC2)c1 | 25.59% | 12.21%
NC(=O)N1CCCC(C(=O)N2CCc3c(nc(CC4CC4)[nH]c3=O)C2)C1 (stereo not shown) | -21.72% | 2.969%
COc1ccccc1C(C)(C)NC(=O)NC1CCC(O)CC1 (stereo not shown) | -15.01% | -3.801%
O=C(NCCn1ccnc1)NCc1ccc(N2CCCCCC2)nc1 | -6.781% | -9.242%
O=C(O)C(F)(F)F.O=C(O)C(F)(F)F.O=C(O)C(F)(F)F.[H][C@@]12CCCO[C@]1([H])[C@H](OCc1ccccn1)CN2Cc1scnc1C | 17.39% | -21.01%
Cl.OC[C@H]1CC[C@]2(CC1)CN(Cc1ccccc1F)Cc1ccccc1O2 | 20.11% | 24.11%
O=C(O)C(F)(F)F.[H][C@@]12COC[C@]1([H])[C@@H](OCC1CCOCC1)CN2Cc1cccc(C#N)c1 | 24.73% | -28.67%
CC(=O)Nc1nc(C(=O)N2CCCC(c3cc(C)[nH]n3)C2)cs1 (stereo not shown) | -1.903% | -17.82%
Cc1cc(C)n(CC2CCCCN2CC(=O)Nc2nccs2)n1 (stereo not shown) | -5.709% | -0.5707%
Cc1cc(NS(=O)(=O)c2ccc(Cl)s2)ccc1-n1cccc1C(=O)O | 25.94% | -20.22%
O=C(O)c1csc(S(=O)(=O)N2CCCc3ccc(F)cc32)c1 | 21.5% | -12.97%
COc1cc(OC)cc(C2(O)CCN(Cc3ncc(C)o3)CC2)c1 | -0.4972% | -16.62%
COCC(=O)NCCSCCOc1cccc(Br)c1 | -36.47% | -1.63%
c1ccc(-c2nnc3n2CCN(Cc2ccc4c(c2)OCCO4)C3)cc1 | - | -26.8%
Cc1cccc(Cn2cc(Br)c(NS(C)(=O)=O)n2)c1 | - | 8.956%
O=C(NCc1cn2c(n1)CN(Cc1cccnc1)CC2)C1CCC1.O=C(O)C(F)(F)F.O=C(O)C(F)(F)F | -3.41% | -18.61%
CCN(Cc1nc(C2CC2)no1)Cc1ccc(C#N)cc1F | 9.637% | -4.696%
CCc1nc(CNCC2(C(N)=O)CCOCC2)cs1 | 12.4% | -10.27%
CC(C)OC(=O)CCNC(=O)Nc1cccc2ncccc12 | 3.064% | -22.21%
Cc1ccccc1CSc1ncccc1C(=O)N(C)C | -0.05075% | -4.301%
Cc1nc(C)n(CC2CCCN(Cc3cn4c(C)cccc4n3)C2)n1 (stereo not shown) | -52.22% | -10.95%
CC(=O)c1cccc(S(=O)(=O)N2CCC(c3n[nH]c(C)n3)CC2)c1 | 6.516% | 4.997%
CN1CCN(C2CCCC2)C(CCO)C1 (stereo not shown) | 18.33% | -8.561%
CCCc1nc(CN(CC)Cc2ccoc2)no1 | 17.36% | 13.4%
O=C(c1ccc2cccnc2n1)N(Cc1ccsc1)CC1CCCO1 (stereo not shown) | 24.06% | 9.202%
CN1CCN(c2cccc(NC(=O)NCc3csc(N(C)C)n3)c2)C1=O | - | -133.7%
CCC(=O)N1CCCCC1c1nc(CN(C)C(C)=O)cc(N(C)C)n1 (stereo not shown) | 49.36% | -4.468%
CN(CC(=O)NCc1ccco1)Cc1nc2c(s1)CCCC2 | 17.3% | -18.98%
COC(=O)CC1C(=O)NCCN1c1nc2c(s1)c(C)nn2C (stereo not shown) | -85.84% | 2.918%
Cc1nn(C)c(C)c1NC(=O)CNc1cc(C(F)(F)F)ccc1F | -1.761% | -14.35%
CC(NCc1ccnc(OC2CCC2)c1)c1cnn(C)c1 (stereo not shown) | 16.63% | 10.23%
COCc1cnc2n1CCN(Cc1cccnc1)C2C.O=C(O)C(F)(F)F.O=C(O)C(F)(F)F (stereo not shown) | 16.08% | 2.142%
N#CC1(C(=O)N2CCN(Cc3cscn3)CC2)CCCC1 | -47.96% | -4.782%
CC(C)N(Cc1ccccc1)Cc1nnsc1Cl | -14.24% | 0.603%
CNC(=O)c1nc(CC(=O)Nc2cccc(C(F)(F)F)c2)no1 | -7.554% | 1.497%
Cc1cc(NC(=O)NCC(CC(C)C)N2CCOCC2)n(C)n1 (stereo not shown) | 23.46% | -19.78%

Some entries from above, unchanged:

* CCCc1nc(CN(CC)Cc2ccoc2)no1 : A: 17.36%; B: 13.4%
* Cc1nc(C)n(CC2CCCN(Cc3cn4c(C)cccc4n3)C2)n1 (stereo not shown) : A: -52.22%; B: -10.95%
* Cc1cccc(Cn2cc(Br)c(NS(C)(=O)=O)n2)c1 : B: 8.956%
* O=C(NCc1cn2c(n1)CN(Cc1cccnc1)CC2)C1CCC1.O=C(O)C(F)(F)F.O=C(O)C(F)(F)F : A: -3.41%; B: -18.61%
* CN(Cc1cc2cc(F)ccc2[nH]1)C(=O)C1CC(=O)N(C(C)(C)C)C1 (stereo not shown) : A: 23.39%; B: -16.61%